Results are given in words; binding and its absence hold for the method and conditions named. In cells and extracts the contact can be indirect. Some results given as binding are weak or reduced against the parent protein; the word gives no strength.
Experiments:
[1] = molecular target: MUC1 (endogenous, NCI-H292 cells) (human (endogenous in NCI-H292)) (UniProt P15941); test: co-IP; NCI-H292 cells transfected with wild-type CXCR4 (or siRNA-CXCR4), CXCL12 for 4 hours; lysis in 25 mM HEPES, 150 mM NaCl, 0.5% NP-40, 1 mM EDTA, 1 mM EGTA; IP with anti-total-MUC1 or anti-CXCR4 on Dynabeads Protein G at 4 °C, blot with anti-CXCR4 or anti-total-MUC1
[2] = molecular target: CXCR4, chemokine (C-X-C motif) receptor 4, wild type (UniProt P61073); test: as above

The chains behind the UniProt entries cited, without tags or fusion partners. Residues count along the entry.
UniProt P15941, residues 24-1255: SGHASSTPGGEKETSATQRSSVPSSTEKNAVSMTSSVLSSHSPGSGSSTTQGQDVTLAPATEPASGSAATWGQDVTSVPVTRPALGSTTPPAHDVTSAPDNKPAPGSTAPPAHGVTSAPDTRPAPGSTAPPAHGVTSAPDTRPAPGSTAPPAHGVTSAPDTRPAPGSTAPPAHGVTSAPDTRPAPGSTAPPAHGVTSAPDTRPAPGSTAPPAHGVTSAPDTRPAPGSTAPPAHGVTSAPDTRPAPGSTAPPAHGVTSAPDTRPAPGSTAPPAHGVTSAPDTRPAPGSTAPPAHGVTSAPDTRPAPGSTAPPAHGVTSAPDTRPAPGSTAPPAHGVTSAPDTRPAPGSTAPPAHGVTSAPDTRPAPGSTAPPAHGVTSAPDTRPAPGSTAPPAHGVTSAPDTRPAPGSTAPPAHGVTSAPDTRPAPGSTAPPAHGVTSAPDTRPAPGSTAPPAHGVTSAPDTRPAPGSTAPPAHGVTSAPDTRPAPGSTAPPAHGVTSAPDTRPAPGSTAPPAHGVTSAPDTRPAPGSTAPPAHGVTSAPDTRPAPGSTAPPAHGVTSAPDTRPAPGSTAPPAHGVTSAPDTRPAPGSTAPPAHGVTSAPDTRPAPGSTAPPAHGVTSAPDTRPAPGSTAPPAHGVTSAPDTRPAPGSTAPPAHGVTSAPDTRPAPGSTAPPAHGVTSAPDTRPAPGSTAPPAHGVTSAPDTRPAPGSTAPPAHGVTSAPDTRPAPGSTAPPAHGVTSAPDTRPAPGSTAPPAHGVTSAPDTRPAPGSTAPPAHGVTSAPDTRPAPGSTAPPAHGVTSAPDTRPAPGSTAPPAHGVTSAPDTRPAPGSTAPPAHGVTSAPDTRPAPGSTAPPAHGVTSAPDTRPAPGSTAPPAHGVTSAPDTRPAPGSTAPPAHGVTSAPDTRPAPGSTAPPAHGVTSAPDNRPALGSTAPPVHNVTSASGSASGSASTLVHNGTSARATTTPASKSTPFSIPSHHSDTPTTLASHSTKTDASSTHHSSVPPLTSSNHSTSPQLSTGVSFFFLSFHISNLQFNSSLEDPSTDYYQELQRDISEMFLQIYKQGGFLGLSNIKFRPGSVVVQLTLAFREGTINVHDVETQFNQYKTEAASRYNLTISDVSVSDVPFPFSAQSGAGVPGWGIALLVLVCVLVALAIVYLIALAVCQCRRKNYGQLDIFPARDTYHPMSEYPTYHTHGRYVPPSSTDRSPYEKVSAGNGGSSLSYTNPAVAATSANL
UniProt P61073: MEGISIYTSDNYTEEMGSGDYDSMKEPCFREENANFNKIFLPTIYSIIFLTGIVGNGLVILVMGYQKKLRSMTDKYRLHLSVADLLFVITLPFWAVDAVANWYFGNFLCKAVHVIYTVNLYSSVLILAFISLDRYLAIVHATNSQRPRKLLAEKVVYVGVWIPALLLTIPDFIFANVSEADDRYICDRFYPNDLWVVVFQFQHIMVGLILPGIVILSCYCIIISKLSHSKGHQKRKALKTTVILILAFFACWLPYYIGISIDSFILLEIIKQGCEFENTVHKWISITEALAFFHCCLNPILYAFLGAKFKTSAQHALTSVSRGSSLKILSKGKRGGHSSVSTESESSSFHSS

With “CXCR4, chemokine (C-X-C motif) receptor 4, wild type (from UniProt P61073 1-352)” the binding [1] was “binds”.
For “MUC1 (endogenous, NCI-H292 cells) (from UniProt P15941 24-1255)”, the binding [2] was “binds”.

From PMC4895231
